# Results published in PubChem BioAssay AID504444 (National Center for Advancing Translational Sciences (NCATS), 2011).
# Hit rate of the full screen: of about 360,000 compounds, about 7,500 (2.1%) were called active. Inconclusive means that the source gave no clear call. Such entries were picked first, then a sample of the others. Calls come from the whole dose curve; as a rule, active = well fitted inhibition curve with a large enough effect; inconclusive = small, poorly fitted or top-dose-only effect, or effect the other way; inactive = flat fitted curve, though single readings scatter. Potencies beside an inconclusive call are fits to weak or partial responses and may not hold up.
# Assay: Nrf2 qHTS screen for inhibitors; note: nearly all actives have a fitted effect of over 60% in size
# Details: A549 ARE-Fluc reporter, luciferase luminescence, 18-24 h; series mostly up to 46 µM
# Outline: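 Two sequential reads on A549 ARE_Fluc cells exposed to compound for 18-24 h: a CellTiter-Fluor fluorescence read for viability, then a luciferase luminescence read for Nrf2/ARE activity.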
# Potency is the fitted concentration of half-maximal effect.
row,Structure (SMILES),Potency
1,CCn1cc(CNC(=O)c2cc(COc3ccc(F)cc3F)on2)cn1,"inconclusive: 18.4 µM [falling, partial curve, poor fit]"
2,CCNc1nc(C23CC4CC(CC(C4)C2)C3)cs1,"inconclusive: 29.1 µM [activator, single point]"
3,CCSc1nc2c(c(=O)[nH]c(=O)n2C)n1CC(O)COc1ccc(Cl)cc1 (stereo unspecified),"inconclusive: 3.66 µM [falling, partial curve, poor fit]"
4,Cc1ccc(C)c(S(=O)(=O)c2nnn3c2nc(Nc2ccc(F)c(Cl)c2)c2sccc23)c1,"inconclusive: 29.1 µM [falling, single point]"
5,COc1ccc(Cn2c(O)c(C=Nc3ccc(O)cc3)c3ccccc3c2=O)cc1,"inconclusive: 23.1 µM [falling, single point]"
6,C=CCn1c(SCC(=O)/C(C#N)=C(\C)N)nnc1C1CCCCC1,"inconclusive: 29.1 µM [activator, single point]"
7,Cc1cc2oc(C(=O)N(Cc3ccccc3)C3CCS(=O)(=O)C3)cc(=O)c2cc1Cl (stereo unspecified),"inconclusive: 6.51 µM [falling, single point]"
8,O=C(NCc1ccc(N2CCCC2=O)cc1)Nc1cccc(Cl)c1,"inconclusive: 20.6 µM [falling, single point]"
9,CC(=O)NN1C(=O)/C(=C2/Sc3ccc(Cl)cc3N2C)SC1=S,"inconclusive: 9.2 µM [activator, partial curve, poor fit]"
10,CC(=O)N1CCc2ccc(S(=O)(=O)Nc3ccccc3Cl)cc21,"inconclusive: 4.11 µM [falling, partial curve, poor fit]"
11,O=C(CNS(=O)(=O)c1ccccc1)N1CCN(Cc2ccccc2)CC1,"inconclusive: 18.4 µM [activator, partial curve, poor fit]"
12,Cc1ccc(NC(=O)CSc2nc3c(c(=O)[nH]2)CCC3)cc1C,"inconclusive: 2.31 µM [activator, partial curve]"
13,O=C(CSc1nnc(C2CCCCC2)o1)Nc1ccccc1Cl,"inconclusive: 18.4 µM [activator, partial curve]"
14,COc1cccc(-c2nn(C)c3sc(C(=O)N4CCN(c5cccc(C)c5)C(C)C4)cc23)c1 (stereo unspecified),"inconclusive: 16.4 µM [falling, single point]"
15,COc1ccc2[nH]c3c(c2c1)CCN1C(=O)C(CC(=O)NC(C)(C)C)C[C@H](C(=O)N2CCCCC2)[C@@]31CCc1ccccc1 (stereo partly specified),"inconclusive: 29.1 µM [falling, single point]"
16,Cc1ccc(C(=O)OCC(=O)NC2CCCCCC2)c(C)c1,"inconclusive: 29.1 µM [falling, single point]"
17,CN(C)S(=O)(=O)c1ccc(N2CCCC2)c(C(=O)Nc2nc(-c3cc(F)ccc3F)cs2)c1,"inconclusive: 2.31 µM [falling, partial curve]"
18,CCOc1ccc(OCc2cccc(C(=O)O)c2)cc1,"inconclusive: 0.116 µM [activator, full curve, poor fit]"
19,COc1ccc(/C=C2\SC(=O)N(CCNC(=O)C3CC4C=CC3C4)C2=O)cc1 (stereo unspecified),"inconclusive: 29.1 µM [activator, single point]"
20,Cc1ccccc1C(=O)NC(=S)NCCc1ccccc1,"inconclusive: 23.1 µM [activator, partial curve]"
21,Cc1cc(C)n(-c2ccc(C(=O)Nc3nnc(C4CC4)s3)cc2)n1,"inconclusive: 4.61 µM [falling, full curve, poor fit]"
22,CCOC(=O)C1CCN(C(=O)Cn2ncc3c([nH]c4ccc(C)cc43)c2=O)CC1,inactive

row,Structure (SMILES),Potency
1,Cc1cccc(N/C=C/C(=O)c2cccs2)c1C,"inconclusive: 0.517 µM [activator, full curve, poor fit]"
2,CCOc1ccc(-c2nc3scc(-c4cccs4)c3c(=O)[nH]2)cc1,"inconclusive: 1.16 µM [activator, partial curve]"
3,COc1ccccc1NC(=O)C1CCCN1S(=O)(=O)c1cccc2nsnc12 (stereo unspecified),"inconclusive: 16.4 µM [falling, single point]"
4,COc1ccccc1OCCn1c(-c2ccc(Br)cc2)nc2ccccc2c1=O,inactive
5,O=C(NC(NC(=O)c1ccccc1)c1ccccc1)c1ccccc1,"inconclusive: 29.1 µM [falling, single point]"
6,COc1cccc(CN(C)C(=O)c2cc(COc3c(F)cccc3F)on2)c1,inactive
7,Fc1ccc(NC(=S)N2CCCN(c3ccc(C(F)(F)F)cn3)CC2)c(F)c1,active: 2.91 µM
8,CCc1[nH]nc(C(=O)N2CCCC(CCC(=O)N3CCN(c4ccccn4)CC3)C2)c1C (stereo unspecified),"inconclusive: 14.6 µM [falling, partial curve, poor fit]"
9,CCc1nnc(NC(=O)CSc2nccn2-c2cccc(C)c2)s1,inactive
10,O=C(O)c1ccc(NC(=O)c2cccc(S(=O)(=O)Nc3ccc(C(=O)O)cc3)c2)cc1,inactive
11,CCOc1ccccc1N(C)C(=O)CCS(=O)(=O)c1ccc2c(c1)NC(=O)C(C)S2 (stereo unspecified),inactive
12,CN(C)c1ccc(/C=N/OC(=O)Nc2ccccc2)cc1,"inconclusive: 2.91 µM [activator, full curve]"
13,Cc1cc(C)cc(N(CC(=O)Nc2cccc(C)n2)S(=O)(=O)c2c(C)noc2C)c1,"inconclusive: 29.1 µM [falling, single point]"
14,Clc1cccc(-c2nnc(SCc3nc4ccccc4[nH]3)n2Cc2ccco2)c1,inactive
15,O=C(CNC(=O)c1ccc(Cl)c(C(F)(F)F)c1)OC(C(=O)Nc1cc(C(F)(F)F)ccc1Cl)c1ccccc1 (stereo unspecified),inactive
16,COc1cc2c(cc1OC)CN(C(=S)Nc1ccccc1Cl)CC2,"inconclusive: 14.6 µM [falling, partial curve, poor fit]"
17,COc1ccc(-c2cc(=O)n(-c3ccc([N+](=O)[O-])cc3)[nH]2)cc1,inactive
18,O=C(Nc1ccc2nc(-c3ccco3)c(-c3ccco3)nc2c1)N1CCN(c2ccccn2)CC1,inactive
19,O=S(=O)(NC1CCCC1)c1ccc(S(=O)(=O)N2CCc3ccccc32)cc1,active: 14.6 µM
20,CCOC(=O)c1cc(-c2ccc(OC(F)F)cc2)nc2nc(SC)[nH]c(=O)c12,inactive
21,O=C1/C(=C/c2cccs2)N=C(c2cccs2)N1Nc1ccccc1,"inconclusive: 25.9 µM [falling, partial curve, poor fit]"
22,OCC1OC(n2ccc3c(SCc4ccccc4)ncnc32)C(O)C1O (stereo unspecified),"inconclusive: 18.4 µM [activator, single point]"

# Sorted by length of the SMILES (ascending): 4 of the compounds above
row,Structure (SMILES),Potency
9,CCc1nnc(NC(=O)CSc2nccn2-c2cccc(C)c2)s1,inactive
22,OCC1OC(n2ccc3c(SCc4ccccc4)ncnc32)C(O)C1O (stereo unspecified),"inconclusive: 18.4 µM [activator, single point]"
14,Clc1cccc(-c2nnc(SCc3nc4ccccc4[nH]3)n2Cc2ccco2)c1,inactive
19,O=S(=O)(NC1CCCC1)c1ccc(S(=O)(=O)N2CCc3ccccc32)cc1,active: 14.6 µM

# Next part

row,Structure (SMILES),Potency
1,Cc1sc2c(c1C)c(=O)n(-c1cccc(C(F)(F)F)c1)c(=O)n2Cc1ccccc1C#N,inactive
2,CCOC(=O)c1c(C)[nH]c(C(=O)OCC(=O)Nc2cc(C)c(Cl)cc2OC)c1C,"inconclusive: 29.1 µM [falling, single point]"
3,COc1ccc(C2(c3ccc(OC)cc3)NC(=O)N(Cn3nnc4ccccc4c3=O)C2=O)cc1,"inconclusive: 13 µM [falling, partial curve, poor fit]"
4,Cc1ccc(S(=O)(=O)N2CCC(C(=O)NCCc3ccccn3)CC2)cc1,inactive
5,COc1ccccc1OCC(O)CNCc1ccc2c(c1)OCO2 (stereo unspecified),inactive
6,Cc1ccc(OCCCCn2c(CCNC(=O)C(C)(C)C)nc3ccccc32)cc1,inactive
7,Cc1ccc(NC(NC(=O)c2ccccc2[N+](=O)[O-])C(Cl)(Cl)Cl)cc1 (stereo unspecified),"inconclusive: 20.6 µM [falling, partial curve, poor fit]"
8,Cc1ncc(CO)c2c1Oc1nc(-c3ccccc3)nc(SCC(=O)Nc3cccc(C(F)(F)F)c3)c1C2,"inconclusive: 29.1 µM [activator, single point]"
9,Nc1c(C(=O)NCCC2=CCCCC2)sc2ccc(S(=O)(=O)N3CCCCC3)cc12,"inconclusive: 23.1 µM [falling, single point]"
10,O=C(Nc1ccc(F)cc1F)c1ccc2c(c1)OCCO2,"inconclusive: 4.11 µM [activator, full curve]"
11,CCc1ccc(OCC(=O)Nc2ccc(S(=O)(=O)N3CCCC3)cc2)c(Br)c1,"inconclusive: 16.4 µM [falling, partial curve, poor fit]"
12,COc1c(C)cccc1C(=O)Nc1ccc(CN2CCOCC2)cc1,"inconclusive: 1.64 µM [activator, full curve]"
13,Cc1c(NC(=O)c2ccc(N3CCC(C)CC3)c([N+](=O)[O-])c2)cccc1-c1nc2ccccc2o1,"inconclusive: 2.31 µM [falling, full curve]"
14,Cc1cccc(N2CCN(C(=O)c3oc(=O)c4ccccc4c3-c3ccccc3)CC2)c1C,inactive
15,Cc1ccc(CNC(=O)c2cc(=O)c3ccccc3o2)cc1,"inconclusive: 29.1 µM [falling, single point]"
16,O=C(CNc1ccc(Cl)c(C(F)(F)F)c1)N1CCN(S(=O)(=O)c2ccccc2)CC1,inactive
17,CN1C(=O)NC(c2ccccc2)C2=C1CN(c1cccc(C(F)(F)F)c1)C2=O (stereo unspecified),inactive
18,Cc1c2c(nc3ccccc13)CCC(C(C)(C)C)C2 (stereo unspecified),"inconclusive: 23.1 µM [activator, single point]"
19,CC(C)CNC(=O)c1c2c(nc3ccccc13)-c1ccccc1CC2,inactive
20,CCCN1CNc2c(c(=O)[nH]c(=S)n2CCc2cc(C)cc(C)c2)C1,inactive
21,C[C@@H]1CN([C@@H](C)CO)C(=O)c2cc(NC(=O)Nc3ccc(F)cc3)ccc2O[C@@H]1CN(C)Cc1ccc(Oc2ccccc2)cc1,"inconclusive: 29.1 µM [falling, single point]"
22,CCc1ccc(NC(=O)CSC2=C(C#N)C(c3ccc4c(c3)OCO4)CC(=O)N2)cc1 (stereo unspecified),"inconclusive: 29.1 µM [falling, single point]"
